Common to all, as to type: cell-based
Holding throughout (settings): Homo sapiens

Assay [1] relates to normal colon-derived epithelium monolayers. The assay is described as follows: Cytokine-induced barrier injury with tofacitinib pre-treatment, TEER. On the procedure:
(A) Transepithelial electrical resistance (TEER). (B) relative TEER value from the same Transwell before treatment after 5 and 24 hours. (C) Permeability and (D) Cell viability of the same Transwell after 24 hours in response to treatments. […] (E) TEER (top), permeability (middle) and cell viability (bottom) dose response curves. EC50 values were calculated by Non-linear regression log(inhibitor) versus response variable slope (four parameters) of three technical replicates.
(A) Transepithelial electrical resistance (TEER). (B) Relative TEER values from the same Transwell before treatment after 5 and 24 hours. (C) Permeability and (D) Cell viability of the same Transwell after 24 hours in response to treatments. […] An unpaired t-test was performed on permeability and cell viability data. A one-way ANOVA (Dunett's multiple comparisons test) was done on normalized TEER, permeability and cell viability data. *P<0.05, **P<0.01, ***P<0.001.
At this point, the culture medium was changed to cCDM until epithelium monolayer barrier integrity further increased (TEER >1000 Ω·cm^2). […] These measurements were normalized to the TEER value of the same Transwell before measurement, to correct for well-to-well TEER variability (FIG. 7B). Paracellular permeability was measured by the Lucifer Yellow (LY) permeability assay after 24 hours (FIG. 7C). Subsequently, monolayer cell viability was measured by the ATP Luminescent Assay, CellTiter-Glo 3D, to monitor for loss of barrier function due to cell death, as opposed to increased paracellular permeability. […] (FIG. 7D).

Assay [2] has the same test system. The assay is described as follows: Cytokine-induced barrier injury with tofacitinib pre-treatment, Lucifer Yellow permeability assay.
For assay [3] the test system is unchanged. The assay is described as follows: cells.

As to `C[C@@H]1CCN(C(=O)CC#N)C[C@@H]1N(C)c1ncnc2[nH]ccc12` [tofacitinib], the EC50 in assay [1] (read-out: TEER (EC50 of tofacitinib dose response, FIG. 7E), IFN-γ/TNF-α 1 ng/mL) was roughly 1.25 µM; in assay [1] (read-out: TEER (EC50 of tofacitinib dose response, FIG. 7E), IFN-γ/TNF-α/IL-1α 1 ng/mL), 1.96 µM; in assay [1] (read-out: TEER (EC50 of tofacitinib dose response, FIG. 7E), IFN-γ/TNF-α/IL-1α 2 ng/mL), 6.38 µM; in assay [1] (read-out: around EC50 tofacitinib concentration, FIG. 7E and Table 6) it was roughly 2 µM; in assay [2] (read-out: Permeability (EC50 of tofacitinib dose response, FIG. 7E), IFN-γ/TNF-α 2 ng/mL), 2 µM; in assay [2] (read-out: Permeability (EC50 of tofacitinib dose response, FIG. 7E), IFN-γ/TNF-α/IL-1α 2 ng/mL), roughly 1.07 µM. The EC50 was roughly 2.82 µM in assay [3] (read-out: Cell Viability (EC50 of tofacitinib dose response, FIG. 7E), IFN-γ/TNF-α 2 ng/mL); roughly 1.04 µM in assay [3] (read-out: Cell Viability (EC50 of tofacitinib dose response, FIG. 7E), IFN-γ/TNF-α/IL-1α 1 ng/mL); roughly 2.84 µM in assay [3] (read-out: Cell Viability (EC50 of tofacitinib dose response, FIG. 7E), IFN-γ/TNF-α/IL-1α 2 ng/mL).
